These are yes or no findings as the source states them, for the method shown. Some results given as binding are weak or reduced against the parent protein; the word gives no strength.
Biological target: AtTOR (target of rapamycin protein, Arabidopsis thaliana) (Arabidopsis thaliana) (UniProt Q9FR53)
Assay: yeast two-hybrid

Chains of the proteins cited; added tags and fusions are not shown. Lines headed by an entry give the natural chain unless they say otherwise; changes in a name come on top.
UniProt Q9FR53: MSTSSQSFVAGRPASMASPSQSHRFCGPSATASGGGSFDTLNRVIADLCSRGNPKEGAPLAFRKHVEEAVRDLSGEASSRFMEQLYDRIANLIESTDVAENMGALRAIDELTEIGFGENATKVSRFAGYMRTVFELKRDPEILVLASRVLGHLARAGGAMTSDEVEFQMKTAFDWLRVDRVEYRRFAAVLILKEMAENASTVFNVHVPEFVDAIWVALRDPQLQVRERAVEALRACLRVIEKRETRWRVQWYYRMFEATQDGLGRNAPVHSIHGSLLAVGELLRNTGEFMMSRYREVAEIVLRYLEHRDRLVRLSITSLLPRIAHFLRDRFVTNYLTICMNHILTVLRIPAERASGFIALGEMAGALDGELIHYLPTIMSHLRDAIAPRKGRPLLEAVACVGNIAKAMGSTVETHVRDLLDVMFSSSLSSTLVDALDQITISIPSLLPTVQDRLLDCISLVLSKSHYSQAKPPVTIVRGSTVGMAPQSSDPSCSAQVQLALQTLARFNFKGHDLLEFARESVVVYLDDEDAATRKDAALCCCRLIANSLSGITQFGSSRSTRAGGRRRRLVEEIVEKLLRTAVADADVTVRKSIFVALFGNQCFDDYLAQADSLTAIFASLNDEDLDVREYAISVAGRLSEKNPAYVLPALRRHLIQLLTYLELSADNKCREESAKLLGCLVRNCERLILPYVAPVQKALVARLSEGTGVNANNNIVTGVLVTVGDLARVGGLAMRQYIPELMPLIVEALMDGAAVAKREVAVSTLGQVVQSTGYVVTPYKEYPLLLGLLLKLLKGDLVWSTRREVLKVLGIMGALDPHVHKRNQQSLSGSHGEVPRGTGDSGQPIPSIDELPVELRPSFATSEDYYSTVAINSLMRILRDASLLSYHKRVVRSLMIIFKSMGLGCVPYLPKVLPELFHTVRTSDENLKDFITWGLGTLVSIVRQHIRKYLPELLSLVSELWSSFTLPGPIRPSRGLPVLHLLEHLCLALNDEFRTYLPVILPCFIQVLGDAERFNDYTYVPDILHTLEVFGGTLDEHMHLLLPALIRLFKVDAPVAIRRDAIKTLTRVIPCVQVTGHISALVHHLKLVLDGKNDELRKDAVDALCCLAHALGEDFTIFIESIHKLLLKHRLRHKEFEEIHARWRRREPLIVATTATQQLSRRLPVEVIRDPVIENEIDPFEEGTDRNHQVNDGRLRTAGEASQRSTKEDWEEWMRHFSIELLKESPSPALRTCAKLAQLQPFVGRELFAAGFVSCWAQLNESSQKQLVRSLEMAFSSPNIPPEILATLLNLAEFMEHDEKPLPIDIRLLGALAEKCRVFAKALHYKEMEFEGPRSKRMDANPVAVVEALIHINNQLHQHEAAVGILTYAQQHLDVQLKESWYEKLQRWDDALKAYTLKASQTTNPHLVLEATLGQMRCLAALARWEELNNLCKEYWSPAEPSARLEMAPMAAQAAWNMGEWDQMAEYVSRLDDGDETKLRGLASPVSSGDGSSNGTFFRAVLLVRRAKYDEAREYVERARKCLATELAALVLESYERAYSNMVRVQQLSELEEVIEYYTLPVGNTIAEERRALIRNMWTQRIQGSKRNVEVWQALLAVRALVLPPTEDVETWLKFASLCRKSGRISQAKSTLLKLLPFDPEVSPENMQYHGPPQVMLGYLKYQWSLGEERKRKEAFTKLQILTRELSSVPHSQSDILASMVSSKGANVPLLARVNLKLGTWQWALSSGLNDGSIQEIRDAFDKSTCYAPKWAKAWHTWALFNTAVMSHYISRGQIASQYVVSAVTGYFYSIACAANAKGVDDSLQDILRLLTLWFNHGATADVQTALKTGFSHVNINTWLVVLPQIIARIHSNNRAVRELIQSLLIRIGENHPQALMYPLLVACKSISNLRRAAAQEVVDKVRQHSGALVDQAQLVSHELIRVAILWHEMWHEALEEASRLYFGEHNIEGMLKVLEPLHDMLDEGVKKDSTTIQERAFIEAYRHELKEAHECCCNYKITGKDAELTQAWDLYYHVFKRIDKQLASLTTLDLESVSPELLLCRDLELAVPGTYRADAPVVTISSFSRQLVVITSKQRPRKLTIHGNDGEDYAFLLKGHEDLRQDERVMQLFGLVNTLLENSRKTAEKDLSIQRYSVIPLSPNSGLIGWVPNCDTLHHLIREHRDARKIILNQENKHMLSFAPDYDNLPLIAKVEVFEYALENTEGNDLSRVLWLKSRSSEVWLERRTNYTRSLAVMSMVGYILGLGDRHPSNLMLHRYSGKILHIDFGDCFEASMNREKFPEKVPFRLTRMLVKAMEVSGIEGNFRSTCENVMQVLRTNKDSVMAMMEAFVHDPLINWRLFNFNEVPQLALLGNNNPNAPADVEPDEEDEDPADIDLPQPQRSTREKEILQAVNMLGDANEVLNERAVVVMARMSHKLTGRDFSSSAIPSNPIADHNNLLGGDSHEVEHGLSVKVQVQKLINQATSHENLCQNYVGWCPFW
UniProt Q9M2Z2: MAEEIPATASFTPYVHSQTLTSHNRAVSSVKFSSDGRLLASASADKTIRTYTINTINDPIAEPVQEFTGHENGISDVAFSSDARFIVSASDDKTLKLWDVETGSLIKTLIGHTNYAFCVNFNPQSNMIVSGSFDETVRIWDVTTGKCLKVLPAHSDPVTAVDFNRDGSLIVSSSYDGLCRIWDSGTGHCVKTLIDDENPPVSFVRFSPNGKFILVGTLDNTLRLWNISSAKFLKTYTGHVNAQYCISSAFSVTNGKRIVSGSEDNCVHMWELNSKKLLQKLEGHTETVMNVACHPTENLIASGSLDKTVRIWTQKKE

Row | binding | Molecule
1 | binds | AtTOR (target of rapamycin protein, Arabidopsis thaliana) (from UniProt Q9FR53 1-2481) (enzyme)
2 | binds | AtTIP16 (enzyme) MVGSLESDQTLSMATLIEKLDILSDDFDPTAVVTEPLPPPVTNGIGADKGGGGGEREMVLGRNIHTTSLAVTEPEVNDEFTGDKEAYMASVLARYRKTLVERTKNHLGYPYNLDFDYGALGQLQHFSINNLGDPFIESNYGVHSRPFEVGVLDWFARLWEIERDDYWGYITNCGTEGNLHGILVGREMFPDGILYASRESHYSVFKAARMYRMECEKVDTLMSGEIDCDDLRKKLLANKDKPAILNVNIGTTVKGAVDDLDLVIKTLEECGFSHDRFYIHCDGALFGLMMPFVKRAPKVTFNKPIGSVSVSGHKFVGCPMPCGVQITRMEHIKVLSSNVEYLASRDATIMGSRNGHAPLFLWYTLNRKGYKGFQKEVQKCLRNAHYLKDRLREAGISAMLNELSSTVVFERPKDEEFVRRWQLACQGDIAHVVVMPSVTIEKLDNFLKDLVKHRLIWYEDGSQPPCLASEVGTNNCICPAHK
3 | binds | AtTIP15 (protein) MTKRSKGANEDKLIETKSKNVSGKSQKQKKPVEAESLKEEDLLQASGTDSDYDGDSLPGSLNSDDFDSDFSDSEDDGTHEGTEDGDVEFSDDDDVLEHDGSIDNEDDDGSEHVGSDNNEEHGSDEDSERGEAVEESDSSEDEVPSRNTVGNVPLKWYEDEKHIGYDLTGKKITKKEKQDKLDSFLATIDDSKTWRKIYDEYNDEDVELTKEESKIVQRILKGEAPHADFDPYAPYVEWFKHDDAIHPLSSAPEPKRRFIPSKWEAKKVVKIVRAIRKGWIKFDKPEEEPNVYLLWGDDSTSDQKSKHLTYIPPPKLKLPGHDESYNPSLEYIPTEEEKASYELMFEEDRPKFIPTRFTSLRSIPAYENALKESFERCLDLYLCPRVRKKRINIDPESLKPKLPSRKDLRPYPNSCYLEYKGHTGAVTSISTDSSGEWIASGSTDGSVRMWEVETGRCLKVWQFDEAIMCVAWNPLSRLPVLAVAMGRDLFFLNTELGTDEEQEITKERLHSGNIPEPDASVAAIVTWLPDELYGGIKIRHFKSISSIDWHRKGDYLSTVMASGETRGVVLHQLSKQKTQRLPFKIRGLPVCTLFHPSLSYFFVATRKDVRVYNLLKPGEATKKLETGLREISSMAIHPGGDNLIVGSKEGKMCWFDMDLSSKPYKTLKNHPKDITNVAVHRSYPLFASCSEDSTAYVFHGMVYNDLNQNPLIVPLEILRGHSSKGGVLDCKFHPRQPWLFTAGADSIIKLYCH
4 | binds | AtTIP28 (protein) ADEINEIREEQEQLAPFDPSKKKKKKKVVIQEPVEDLAESSQTEKSDSLPVNDGLESSFTGMKKKKKKPTESSLLNNESVDAGEDLDEIANDEQEGEEGIVLQQRYPWEGSERDYIYDELLGRVFNILRENNPELAGDRRRTVMRPPQVLREGTKKTVFVNFMDLCKTMHRQPDHVMQYLLAELGTSGSLDGQQRLVVKGRFAPKNFEGILRRYITDYVICLGCKSPDTILSKENRLFFLRCEKCGSQRSVAPIKTGFVARVSRRKT

The remaining lines, values behind:

Row | Molecule | binding
5 | AtTIP7 (from UniProt Q9M2Z2 1-317) | binds
6 | AtTIP2 (enzyme) MVSSQCSVANKNQTGKPFQKHLSLSISPPKSVLGDNLELQFSDVFGPMPEANSEEACDVAYDEPAVVYSRSHSLVGPSLVVSHSLKMNKLTLRETEDSVDLVECVEGESIKENDEFSGNDDTDSEKSPEEVSGVVGIEDFEVLKVVGQGAFGKVYQVRKKDTSEIYAMKVMRKDKIVEKNHAEYMKAERDILTKIDHPFIVQLKYSFQTKYRLYLVLDFINGGHLFFQLYHQGLFREDLARVYTAEIVSAVSHLHEKGIMHRDLKPENILMDVDGHVMLTDFGLAKEFEENTRSNSMCGTTEYMAPEIVRGKGHDKAADWWSVGILLYEMLTGKPPFLGSKGKIQQKIVKDKIKLPQFLSNEAHALLKGLLQKEPERRLGSGPSGAEEIKKHKWFKAINWKKLEAREVQPSFKPAVSGRQCIANFDKCWTDMSVLDSPASSPNSDAKANPFTNFTYVRPPHSFLHRTTSNL | binds
7 | AtTIP9 (protein) MGGLAMEEMPLSVLFEQARKIHLAASESGVDQDVVKKGCEMFQKCEDMIGKLALFSSNETKEDISTNNLKYLLVPYYLAELTEKIIQEDRIQIVKASYAKLKEFFSFCEAMELVPDEELEASSRGGSGAPADRRALKIARFKRQKAAEAKLLEIKERKERRGRSTKASALSTPVESGEDDIPDDDSEEEREAWLSSINLAICKAIDLLEMLKREEEMLSAIKERQLKDGEGGFSRDALDDRTKKAETWHRDAAARIQYSKPAQPITCATFAQDVLEGRASVSQGHEHKNQPLIFGPASIVGGPLSTERERMIAQVFQPSHRMPTMCIEDAGLTEMNIMNDWQEQTKKAIEEATTSWYNDKPLRRKEEDEEDDDEDEEAVMKARAFDDWKDDNPRGAGNKKLTPCG | binds
8 | AtTIP5 (protein) MASQTPNLECRMYEAKYPEVDMAVMIQVKNIADMGAYVSLLEYNNIEGMILFSELSRRRIRSVSSLIKVGRIEPVMVLRVDKEKGYIDLSKRRVSEEDIQTCEERYNKSKLVHSIMRHVAETLSIDLEDLYVNIGWPLYRRHGHAFEAFKILVTDPDSVLGPLTREIKEVGPDGQEVTKVVPAVTEEVKDALVKNIRRRMTPQPMKIRADIELKCFQFDGVVHIKEAMKNAEAAGNEDCPVKIKLVAPPLYVLTTQTLDKEQGIEILNKAIAACTETIETHKGKLVVKEGARAVSERDEKMLTEHMAKLRLDNEEMSGDEDSGDEEEDTGMGEVDLDAGAGIIE | binds
9 | AtTIP13 (protein) MALGDLMVSRFSQSSVSLVSNHRYDEDCVSSHDDGDSRRKDSEAKSSSSYGNGTTEGAATATSMAYLPQTIVLCELRHDASEASAPLGTSEIVLVPKWRLKERMKTGCVALVLCLNITVDPPDVIKISPCARIEAWIDPFSMAPPKALETIGKNLSTQYERWQPRARYKVQLDPTVDEVRKLCLTCRKYAKTERVLFHYNGHGVPKPTANGEIWVFNKSYTQYIPLPISELDSWLKTPSIYVFDCSAARMILNAFAELHDWGSSGSSGSSRDCILLAACDVHETLPQSVEFPADVFTSCLTTPIKMALKWFCRRSLLKEIIDESLIDRIPGRQNDRKTLLGELNWIFTAVTDTIAWNVLPHELFQRLFRQDLLVASLFRNFLLAERIMRSANCNPISHPMLPPTHQHHMWDAWDMAAEICLSQLPQLVLDPSTEFQPSPFFTEQLTAFEVWLDHGSEHKKPPEQLPIVLQVLLSQCHRFRALVLLGRFLDMGSWAVDLALSVGIFPYVLKLLQTTTNELRQILVFIWTKILALDKSCQIDLVKDGGHTYFIRFLDSSGAFPEQRAMAAFVLAVIVDGHRRGQEACLEANLIGVCLGHLEASRPSDPQPEPLFLQWLCLCLGKLWEDFMEAQIMGREANAFEKLAPLLSEPQPEVRAAAVFALGTLLDIGFDSNKSVVEDEFDDDEKIRAEDAIIKSLLDVVSDGSPLVRAEVAVALARFAFGHKQHLKLAAASYWKPQSSSLLTSLPSIAKFHDPGSATIVSLHMSPLTRASTDSQPVARESRISSSPLGSSGLMQGSPLSDDSSLHSDSGMMHDSVSNGAVHQPRLLDNAVYSQCVRAMFALAKDPSPRIASLGRRVLSIIGIEQVVAKPSKPTGRPGEAATTSHTPLAGLARSSSWFDMHAGNLPLSFRTPPVSPPRTNYLSGLRRVCSLEFRPHLLGSPDSGLADPLLGASGSERSLLPLSTIYGWSCGHFSKPLLGGADASQEIAAKREEKEKFALEHIAKCQHSSISKLNNNPIANWDTRFETGTKTALLHPFSPIVVAADENERIRVWNYEEATLLNGFDNHDFPDKGISKLCLINELDDSLLLVASCDGSVRIWKNYATKGKQKLVTGFSSIQGHKPGARDLNAVVDWQQQSGYLYASGETSTVTLWDLEKEQLVRSVPSESECGVTALSASQVHGGQLAAGFADGSLRLYDVRSPEPLVCATRPHQKVERVVGLSFQPGLDPAKVVSASQAGDIQFLDLRTTRDTYLTIDAHRGSLTALAVHRHAPIIASGSAKQLIKVFSLQGEQLGIIRYYPSFMAQKIGSVSCLTFHPYQVLLAAGAADSFVSIYTHDNSQAR | binds
10 | AtTIP8 (protein) MSTREENVYMAKLAEQAERYEEMVEFMEKVAKTVDVEELSVEERNLLSVAYKNVIGARRASWRIISSIEQKEESKGNEDHVAIIKDYRGKIESELSKICDGILNVLEAHLIPSASPAESKVFYLKMKGDYHRYLAEFKAGAERKEAAESTLVAYKSASDIATAELAPTHPIRLGLALNFSVFYYEILNSPDRACSLAKQAFDDAIAELDTLGEESYKDSTLIMQLLRDNLTLWTSDMTDEAGDEIKEASKPDGAE | binds
11 | AtTIP6 (enzyme) MLAMEKEFDSKLVLQGNSSNGANVSRSKSFSFKAPQENFTSHDFEFGKIYGVGSYSKVVRAKKKETGTVYALKIMDKKFITKENKTAYVKLERIVLDQLEHPGIIKLYFTFQDTSSLYMALESCEGGELFDQITRKGRLSEDEARFYTAEVVDALEYIHSMGLIHRDIKPENLLLTSDGHIKIADFGSVKPMQDSQITVLPNAASDDKACTFVGTAAYVPPEVLNSSPATFGNDLWALGCTLYQMLSGTSPFKDASEWLIFQRIIARDIKFPNHFSEAARDLIDRLLDTEPSRRPGAGSEGYVALKRHPFFNGVDWKNLRSQTPPKLAPDPASQTASPERDDTHGSPWNLTHIGDSLATQNEGHSAPPTSSESSGSITRLASIDSFDSRWQQFLEPGESVLMISAVKKLQKITSKKVQLILTNKPKLIYVDPSKLVVKGNIIWSDNSNDLNVVVTSPSHFKICTPKKVLSFEDAKQRASVWKKAIETLQNR | binds
12 | AtTIP3 (protein) METVVDKDVLKSSGAELLPDGRRGLRIHDWEIETLRGTILTSLAVEEWEKKLKTSHLPEMVFGENALVLKHLGSNTKIHFNAFDALAGWKQEGLPPVEVPAAAQWKFRSKPSQQVILDYDYTFTTPYCGSEVVEKDKETVEAKANPKGEATLQWENCEDQIDLAALSLKEPILFYDEVVLYEDELADNGVSLLTVKVRVMPSSWFLLLRFWLRVDGVLMRLRETRMHYRFGEDEAPTVLRENCWREATFQSLSAKGYPVDLAVWSDPSSISQRLPVIKHTTQKLKIPSKV | binds

— patent US20110258738A1
